From patent publication US20260365633A1, “Novel PEM Structures for SBX” (Roche Sequencing Solutions, Inc., priority 2023, published 2026)
Some entries share one result that the patent states for a list of compounds.

Test system: nucleic acid polymerase
Assay: PEM activity summary: primer extension on 45mer, 100mer, 150mer, 222mer DNA templates, gel (Table 2)
Format: biochemical
Details: preliminary functional characterization
Procedure: In some instances, the PEM compounds of the present disclosure were tested in primer extension reactions using DNA templates of the following lengths: A) 45mer; B) 100mer; C) 150mer; and D) 222mer.

SMILES: CNC(=O)c1cc(-c2cn(-c3ccc(C(=O)O)c(O)c3)nn2)nc(-c2cn(-c3ccc(C(=O)O)c(O)c3)nn2)c1 [Compound 18, 4,4′-((4-(methylcarbamoyl)pyridine-2,6-diyl)bis(1H-1,2,3-triazole-4,1-diyl))bis(2-hydroxybenzoic acid)]
- Functional Category: PEM effect: PEM effect

SMILES: CCCCNC(=O)c1cc(-c2cn(-c3ccc(C(=O)O)c(O)c3)nn2)nc(-c2cn(-c3ccc(C(=O)O)c(O)c3)nn2)c1 [Compound 48, 4,4′-((4-(butylcarbamoyl)pyridine-2,6-diyl)bis(1H-1,2,3-triazole-4,1-diyl))bis(2-hydroxybenzoic acid)]
- Functional Category: PEM effect: PEM effect

SMILES: CCN(CC)C(=O)c1cc(-c2cn(-c3ccc(C(=O)O)c(O)c3)nn2)nc(-c2cn(-c3ccc(C(=O)O)c(O)c3)nn2)c1 [Compound 49, 4,4′-((4-(diethylcarbamoyl)pyridine-2,6-diyl)bis(1H-1,2,3-triazole-4,1-diyl))bis(2-hydroxybenzoic acid)]
- Functional Category: PEM effect: PEM effect

SMILES: O=C(O)c1ccc(-n2cc(-c3ccc(-c4cn(-c5ccc(C(=O)O)c(O)c5)nn4)cc3)nn2)cc1O [Compound 21, 4,4′-(1,4-phenylenebis(1H-1,2,3-triazole-4,1-diyl))bis(2-hydroxybenzoic acid)]
- Functional Category: PEM effect: PEM effect

SMILES: O=C(O)c1ccc(-n2cc(-c3ccc(-c4cn(-c5ccc(C(=O)O)c(C(F)(F)F)c5)nn4)s3)nn2)cc1C(F)(F)F [Compound 117, 4,4′-(thiophene-2,5-diylbis(1H-1,2,3-triazole-4,1-diyl))bis(2-(trifluoromethyl)benzoic acid)]
- Functional Category: PEM effect: PEM effect

SMILES: CCNC(=O)c1cc(-c2cn(-c3ccc(C(=O)O)cc3O)nn2)nc(-c2cn(-c3ccc(C(=O)O)cc3O)nn2)c1 [Compound 100, 4,4′-((4-(ethylcarbamoyl)pyridine-2,6-diyl)bis(1H-1,2,3-triazole-4,1-diyl))bis(3-hydroxybenzoic acid)]
- Functional Category: PEM effect: PEM effect

SMILES: CCNC(=O)c1cc(-c2cn(-c3cc(C(=O)O)cc(C(F)(F)F)c3)nn2)nc(-c2cn(-c3cc(C(=O)O)cc(C(F)(F)F)c3)nn2)c1 [Compound 93, 5,5′-((4-(ethylcarbamoyl)pyridine-2,6-diyl)bis(1H-1,2,3-triazole-4,1-diyl))bis(3-(trifluoromethyl)benzoic acid)]
- Functional Category: PEM effect: PEM effect

SMILES: N#Cc1cc(-c2cn(-c3ccc(O)c(C(=O)O)c3)nn2)nc(-c2cn(-c3ccc(O)c(C(=O)O)c3)nn2)c1 [Compound 12, 5,5′-((4-cyanopyridine-2,6-diyl)bis(1H-1,2,3-triazole-4,1-diyl))bis(2-hydroxybenzoic acid)]
- Functional Category: PEM effect: PEM effect

SMILES: O=C(O)c1ccc(-n2cc(-c3ccc(-c4cn(-c5ccc(C(=O)O)c(O)c5)nn4)nn3)nn2)cc1O [Compound 92, 4,4′-(pyridazine-3,6-diylbis(1H-1,2,3-triazole-4,1-diyl))bis(2-hydroxybenzoic acid)]
- Functional Category: PEM effect: PEM effect

SMILES: CCNC(=O)c1cc(-c2cn(-c3c(C(=O)O)cccc3C(F)(F)F)nn2)nc(-c2cn(-c3c(C(=O)O)cccc3C(F)(F)F)nn2)c1 [Compound 104, 2,2′-((4-(ethylcarbamoyl)pyridine-2,6-diyl)bis(1H-1,2,3-triazole-4,1-diyl))bis(3-(trifluoromethyl)benzoic acid)]
- Functional Category: PEM effect: PEM effect

SMILES: N#Cc1ccc(-c2cn(-c3ccc(C(=O)O)c(O)c3)nn2)nc1-c1cn(-c2ccc(C(=O)O)c(O)c2)nn1 [Compound 39, 4,4′-((3-cyanopyridine-2,6-diyl)bis(1H-1,2,3-triazole-4,1-diyl))bis(2-hydroxybenzoic acid)]
- Functional Category: PEM effect: PEM effect

SMILES: O=C(O)c1ccc(-n2cc(-c3ccc(-c4cn(-c5ccc(C(=O)O)c(C(F)(F)F)c5)nn4)o3)nn2)cc1C(F)(F)F [Compound 118, 4,4′-(furan-2,5-diylbis(1H-1,2,3-triazole-4,1-diyl))bis(2-(trifluoromethyl)benzoic acid)]
- Functional Category: PEM effect: PEM effect

SMILES: COc1ccc(-n2cc(-c3cccc(-c4cn(-c5ccc(C(=O)O)cc5)nn4)c3)nn2)cc1 [Compound 29, 4-(4-(3-(1-(4-methoxyphenyl)-1H-1,2,3-triazol-4-yl)phenyl)-1H-1,2,3-triazol-1-yl)benzoic acid]
- Functional Category: PEM effect: PEM effect

SMILES: O=C(O)c1ccc(-n2cc(-c3cc(C(=O)N4CCOCC4)cc(-c4cn(-c5ccc(C(=O)O)c(C(F)(F)F)c5)nn4)n3)nn2)cc1C(F)(F)F [Compound 80, 4,4′-((4-(morpholine-4-carbonyl)pyridine-2,6-diyl)bis(1H-1,2,3-triazole-4,1-diyl))bis(2-(trifluoromethyl)benzoic acid)]
- Functional Category: PEM effect: PEM effect

SMILES: O=C(O)c1ccc(-n2cc(-c3cc([N+](=O)[O-])cc(-c4cn(-c5ccc(C(=O)O)c(O)c5)nn4)n3)nn2)cc1O [Compound 11, 4,4′-((4-nitropyridine-2,6-diyl)bis(1H-1,2,3-triazole-4,1-diyl))bis(2-hydroxybenzoic acid)]
- Functional Category: PEM effect: PEM effect

SMILES: O=C(O)c1cc(-c2cn(-c3ccc(C(=O)O)c(C(F)(F)F)c3)nn2)cc(-c2cn(-c3ccc(C(=O)O)c(C(F)(F)F)c3)nn2)c1 [Compound 103, 4,4′-((5-carboxy-1,3-phenylene)bis(1H-1,2,3-triazole-4,1-diyl))bis(2-(trifluoromethyl)benzoic acid)]
- Functional Category: PEM effect: PEM effect

SMILES: COc1cc(-c2cn(-c3ccc(C(=O)O)c(O)c3)nn2)nc(-c2cn(-c3ccc(C(=O)O)c(O)c3)nn2)c1 [Compound 9, 4,4′-((4-methoxypyridine-2,6-diyl)bis(1H-1,2,3-triazole-4,1-diyl))bis(2-hydroxybenzoic acid)]
- Functional Category: PEM effect: PEM effect

SMILES: O=C(NCCO)c1cc(-c2cn(-c3ccc(C(=O)O)c(O)c3)nn2)nc(-c2cn(-c3ccc(C(=O)O)c(O)c3)nn2)c1 [Compound 66, 4,4′-((4-((2-hydroxyethyl)carbamoyl)pyridine-2,6-diyl)bis(1H-1,2,3-triazole-4,1-diyl))bis(2-hydroxybenzoic acid)]
- Functional Category: PEM effect: PEM effect

SMILES: O=C(O)c1ccc(-n2cc(-c3cncc(-c4cn(-c5ccc(C(=O)O)c(O)c5)nn4)c3)nn2)cc1O [Compound 2, 4,4′-(pyridine-3,5-diylbis(1H-1,2,3-triazole-4,1-diyl))bis(2-hydroxybenzoic acid)]
- Functional Category: PEM effect: PEM effect

SMILES: O=C(O)c1ccc(-n2cc(-c3ccc4ccc5ccc(-c6cn(-c7ccc(C(=O)O)c(O)c7)nn6)nc5c4n3)nn2)cc1O [Compound 37, 4,4′-((1,10-phenanthroline-2,9-diyl)bis(1H-1,2,3-triazole-4,1-diyl))bis(2-hydroxybenzoic acid)]
- Functional Category: PEM effect: PEM effect

SMILES: N#Cc1ccnc(-c2cn(-c3ccc(C(=O)O)c(O)c3)nn2)c1 [Compound 43, 4-(4-(4-cyanopyridin-2-yl)-1H-1,2,3-triazol-1-yl)-2-hydroxybenzoic acid]
- Functional Category: PEM effect: PEM effect

SMILES: COCCOCCNC(=O)c1cc(-c2cn(-c3ccc(C(=O)O)c(C(F)(F)F)c3)nn2)nc(-c2cn(-c3ccc(C(=O)O)c(C(F)(F)F)c3)nn2)c1 [Compound 246, 4-[4-(6-{1-[4-Carboxy-3-(trifluoromethyl)phenyl]-1H-1,2,3-triazol-4-yl}-4-[N-2-(2-methoxyethoxy)ethylcarbamoyl]-2-pyridyl)-1H-1,2,3-triazol-1-yl]-2-(trifluoromethyl)benzoic acid]
- Functional Category: PEM effect: PEM effect

SMILES: CCNC(=O)c1cc(-c2cn(-c3ccc(C(=O)O)c(C#N)c3)nn2)nc(-c2cn(-c3ccc(C(=O)O)c(C#N)c3)nn2)c1 [Compound 120, 4,4′-((4-(ethylcarbamoyl)pyridine-2,6-diyl)bis(1H-1,2,3-triazole-4,1-diyl))bis(2-cyanobenzoic acid)]
- Functional Category: PEM effect: PEM effect

SMILES: CCCCNC(=O)c1cc(-c2cn(-c3ccc(C(=O)O)c(C(F)(F)F)c3)nn2)nc(-c2cn(-c3ccc(C(=O)O)c(C(F)(F)F)c3)nn2)c1 [Compound 89, 4,4′-((4-(butylcarbamoyl)pyridine-2,6-diyl)bis(1H-1,2,3-triazole-4,1-diyl))bis(2-(trifluoromethyl)benzoic acid)]
- Functional Category: PEM effect: PEM effect

SMILES: O=C(O)c1cc(-c2cn(-c3ccc(C(=O)O)c(O)c3)nn2)nc(-c2cn(-c3ccc(C(=O)O)c(O)c3)nn2)c1 [Compound 36, 4,4′-((4-carboxypyridine-2,6-diyl)bis(1H-1,2,3-triazole-4,1-diyl))bis(2-hydroxybenzoic acid)]
- Functional Category: PEM effect: PEM effect

SMILES: CCNC(=O)c1cc(-c2cn(-c3cc(Cl)c(C(=O)O)c(Cl)c3)nn2)nc(-c2cn(-c3cc(Cl)c(C(=O)O)c(Cl)c3)nn2)c1 [Compound 245, 4-(4-{6-[1-(4-Carboxy-3,5-dichlorophenyl)-1H-1,2,3-triazol-4-yl]-4-(N-ethylcarbamoyl)-2-pyridyl}-1H-1,2,3-triazol-1-yl)-2,6-dichlorobenzoic acid]
- Functional Category: PEM effect: PEM effect

SMILES: CCNC(=O)c1cc(-c2cn(-c3cc[nH]c(=O)c3)nn2)nc(-c2cn(-c3cc[nH]c(=O)c3)nn2)c1 [Compound 233, N-Ethyl-2,6-bis[1-(2-oxo-1,2-dihydro-4-pyridyl)-1H-1,2,3-triazol-4-yl]isonicotinamide]
- Functional Category: PEM effect: PEM effect

SMILES: CCNC(=O)c1cc(-c2cn(-c3ccc(C(=O)O)c(C(=O)O)c3)nn2)nc(-c2cn(-c3ccc(C(=O)O)c(C(=O)O)c3)nn2)c1 [Compound 97, 4,4′-((4-(ethylcarbamoyl)pyridine-2,6-diyl)bis(1H-1,2,3-triazole-4,1-diyl))diphthalic acid]
- Functional Category: PEM effect: PEM effect

SMILES: CCNC(=O)c1cc(-c2cn(-c3ccc(C(=O)NCC(=O)O)c(C(F)(F)F)c3)nn2)nc(-c2cn(-c3ccc(C(=O)NCC(=O)O)c(C(F)(F)F)c3)nn2)c1 [Compound 110, 2,2′-((4,4′-((4-(ethylcarbamoyl)pyridine-2,6-diyl)bis(1H-1,2,3-triazole-4,1-diyl))bis(2-(trifluoromethyl)benzoyl))bis(azanediyl))diacetic acid]
- Functional Category: PEM effect: PEM effect
